Source: patent publication US9655879B2, “Heteroarylcarboxylic acid ester derivative” (EA Pharma Co., Ltd., priority 2012, dated 2017)
For at least one compound, name, drawing or mass did not settle the structure.

System: Zucker Fatty rats
Assay: Evaluation of hypoglycemic action
Format: in vivo, rat
Settings: gavage 3 mg/kg, HCl salt form, 2 or 4 hours after dosing
Method: Zucker Fatty rats (male, 11-19 week-old, Charles River Japan, Inc.) known to spontaneously develop hyperglycemia were randomly assigned to the groups (6 per group). The animals were individually housed in a polycarbonate cage and allowed to drink water freely from a watering bottle. The animals in the compound groups were gavaged with compound No. 10, 87, 19, or 69 at the dose of 3 mg/kg. These compounds were used as HCl salt form thereof, converted by the method according to Example 3, step 6 from TFA salt form thereof upon the necessity. The animals in the control group were only treated with the vehicle (0.5% methylcellulose). Animals were allowed free access to the feed (CRF-1, Oriental Yeast Co., Ltd.) during the experiment. An aspirate of the blood (6 μL) was collected from the tail vein on the time point of immediately before dosing (time 0) as well as 2, 4, and 8 hours after dosing. The blood glucose levels were determined with ACCU-CHEK Aviva (Roche Diagnostics K.K.).

Compound: CC(C)(Cc1ccc(C(=O)Oc2ccc(C(=N)N)cc2F)s1)C(=O)O [Compound 87]
- blood glucose levels compared with vehicle group: significantly decreased
